Reference: PubChem BioAssay AID1671190 (National Center for Advancing Translational Sciences (NCATS), 2021)
Several values for one entry are separate records, joined by “and”; a condition that tells them apart may be missing. Identical values can stand only once. Screen size: about 580,000 compounds; about 6,100 (1.1%) were called active. The shares of active, inactive and inconclusive entries below differ from those in the screen. The call rests on the fitted dose curve; in most records, active means well fitted inhibition curve with a large enough effect; inconclusive means small, poorly fitted or top-dose-only effect, or another doubt; inactive means no such curve, though single readings can be large or run the other way. A potency beside an inconclusive call is a rough fit, not a confirmed value.

Chains of the proteins cited; added tags and fusions are not shown. Lines headed by an entry give the natural chain unless they say otherwise; changes in a name come on top.
UniProt P18054: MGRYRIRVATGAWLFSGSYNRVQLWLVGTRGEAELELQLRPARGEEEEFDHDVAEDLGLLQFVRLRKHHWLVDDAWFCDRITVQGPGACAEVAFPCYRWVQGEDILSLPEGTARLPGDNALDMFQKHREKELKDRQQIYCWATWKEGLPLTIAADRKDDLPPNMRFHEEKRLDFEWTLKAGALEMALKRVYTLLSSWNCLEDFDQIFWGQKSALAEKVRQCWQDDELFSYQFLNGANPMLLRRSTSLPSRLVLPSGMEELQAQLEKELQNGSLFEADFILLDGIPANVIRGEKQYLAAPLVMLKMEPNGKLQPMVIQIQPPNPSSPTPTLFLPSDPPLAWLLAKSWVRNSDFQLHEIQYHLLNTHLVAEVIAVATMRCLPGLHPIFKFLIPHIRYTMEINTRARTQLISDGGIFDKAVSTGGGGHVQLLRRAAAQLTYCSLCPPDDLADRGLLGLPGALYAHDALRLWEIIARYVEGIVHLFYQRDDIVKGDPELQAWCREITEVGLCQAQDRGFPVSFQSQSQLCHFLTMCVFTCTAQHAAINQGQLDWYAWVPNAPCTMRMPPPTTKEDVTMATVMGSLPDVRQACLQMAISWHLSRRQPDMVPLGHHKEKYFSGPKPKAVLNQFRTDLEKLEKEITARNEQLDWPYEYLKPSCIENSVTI

What follows are compounds tested against Polyunsaturated fatty acid lipoxygenase ALOX12 (Homo sapiens) (UniProt P18054) (assay: Primary qHTS assay for inhibitors of human arachidonate 12S-lipoxygenase (ALOX12): Round 2). Conditions: purified 12hLO, xylenol orange hydroperoxide absorbance; activity change, negative = inhibition: at 108 µM (top of the series) unless noted.
Outline: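 Purified human 12hLO (150 nM final) in 25 mM Hepes, 0.01% Triton X-100, pH 7.0 was preincubated 15 min at room temperature with compound. Then 40 uM arachidonic acid was added, 30 min. Hydroperoxide was read by Fe-XO absorbance ratio 573/405 nm.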
On the % scale 0 is the no-effect control and ±100 the full control effect; potency means the concentration at half of the fitted maximal effect.

Row | Structure (SMILES) | Potency | activity change, negative = inhibition
1 | O=P(Cc1ccccn1)(c1ccccc1)c1ccccc1 | inconclusive: 22.4 µM [inhibitor, partial curve, poor fit] | 
2 | COc1ccc(NC(=O)c2ccccc2Sc2ccc(NC(C)=O)nc2)cc1 | inconclusive: 28.2 µM [inhibitor, partial curve, poor fit] | 
3 | C/C(=N\NC(=O)CN1CCN(Cc2ccccc2)CC1)c1cccs1 | inconclusive: 158 µM [inhibitor, partial curve, poor fit] | 
4 | COc1cccc(C2NC(c3cccc(OC)c3O)C(C)C(=O)C2C)c1O (configuration not stated) | inconclusive: 89.1 µM [inhibitor, single point] | 
5 | COc1ccc(NC(=O)c2ccccc2Cl)c2cccnc12 | inactive | 
6 | CC(NC(=S)NC1CCCCC1)c1ccc(C(C)(C)C)cc1 (configuration not stated) | inconclusive: 31.6 µM [inhibitor, partial curve, poor fit] | 
7 | O=C(OCC(=O)N1CCCCCC1)c1ccc[nH]c1=O | inconclusive: 50.1 µM [inhibitor, partial curve, poor fit] | 
8 | Cc1ccc(C(Nc2ccccn2)c2ccc3cccnc3c2O)cc1 (configuration not stated) | active: 17.8 µM | 
9 | COc1ccccc1Nc1cc2cc(Br)ccc2c(=O)[nH]1 | active: 8.91 µM | 
10 | CC(C)(C)[C@@H]1CCC(=O)N(CC[C@H](Sc2ccccc2)c2ccccc2)CC1 | inconclusive: 79.4 µM [inhibitor, single point] | 
11 | Cc1cc(OCC(=O)N(Cc2sccc2C)CC2CCCO2)ccc1Cl (configuration not stated) | inconclusive: 112 µM [inhibitor, single point] | 
12 | CCN1CCN(Cc2cc(=O)oc3cc4c(cc23)CCC4)CC1 | inconclusive: 79.4 µM [inhibitor, single point] | 
13 | Cc1ccccc1NC(=O)c1c(NC(=O)C(C)Oc2cccc(Cl)c2)sc2c1CCCC2 (configuration not stated) | inconclusive: 63.1 µM [inhibitor, partial curve, poor fit] | 
14 | COc1cscc1C(=O)O | inconclusive: 89.1 µM [inhibitor, single point] | 
15 | Nc1c(-c2ccccc2)sc2ccc3ccccc3[n+]12 | inconclusive: 70.8 µM [inhibitor, partial curve, poor fit] | 
16 | CCc1cccc(C)c1NC(=S)NCc1ccccc1 | inconclusive: 10 µM [inhibitor, partial curve, poor fit] | 
17 | Cc1ccc(N/N=C2\CS(=O)(=O)N(C)c3ccsc32)cc1 | inconclusive: 79.4 µM [inhibitor, partial curve, poor fit] | 
18 | COc1ccc(C(=O)COC(=O)CCN=C2NS(=O)(=O)c3ccccc32)cc1OC | inconclusive: 20 µM [inhibitor, full curve, poor fit] | 
19 | O=C(C[n+]1cc(Br)cc(Br)c1)c1cccc([N+](=O)[O-])c1 | inconclusive: 50.1 µM [inhibitor, partial curve, poor fit] | 
20 | Cc1ccc(N(CC(=O)NCc2ccco2)C(=O)CCC(=O)Nc2ccccn2)cc1C | inconclusive: 20 µM [inhibitor, partial curve, poor fit] | 
21 | COc1ccc(-c2nn(-c3ccccc3)cc2CN2CCCC(CO)C2)c(F)c1 (configuration not stated) | inconclusive: 7.94 µM [inhibitor, full curve, poor fit] | 

Row | Structure (SMILES) | Potency | activity change, negative = inhibition
22 | O=c1cc(-c2ccccn2)oc2c(-c3cccc(CO)c3)nccc12 | inconclusive: 20 µM [inhibitor, full curve] | 
23 | CCOC(=O)NC1CCc2cc(OC)c(OC)c(OC)c2-c2ccc(SC)c(=O)cc21 (configuration not stated) | inconclusive: 44.7 µM [inhibitor, partial curve, poor fit] | 
24 | Cc1ccc(-c2n[nH]c(=S)n2/N=C/c2ccc(C)o2)cc1 | inconclusive: 56.2 µM [inhibitor, partial curve, poor fit] | 
25 | CS(=O)(=O)N(Cc1csc(-c2cccs2)n1)C1CCN(C(=O)c2cccc(Cl)c2)CC1 | inactive | 
26 | COc1cccc([C@@H]2CN(C(=O)CCCC(=O)O)C[C@H]2C(=O)O)c1 | inconclusive: 70.8 µM [inhibitor, partial curve, poor fit] | 
27 | O=C(Nc1ccc(OC(F)F)cc1)c1nc(S(=O)(=O)Cc2ccccc2F)ncc1Cl | inconclusive: 28.2 µM [inhibitor, partial curve, poor fit] | 
28 | CCCN1CCN(C(=S)Nc2ccc(S(N)(=O)=O)cc2)CC1 | inactive | 
29 | CC(=O)NC(C(=O)NC(C)c1ccc(Cl)cc1)C(C)C (configuration not stated) | inactive | 
30 | c1cncc(-c2nc(N3CCNCC3)c3ccccc3n2)c1 | inconclusive: 3.98 µM [inhibitor, full curve, poor fit] | 
31 | CCCCn1c(=O)[nH]c(=O)c2c1nc(CSc1nnc(-c3ccco3)n1C1CCCCC1)n2CC | inconclusive: 79.4 µM [inhibitor, single point] | 
32 | CCC1(c2ccccc2)NC(=S)N(c2ccc(C)cc2)N1 (configuration not stated) | inconclusive: 100 µM [inhibitor, partial curve, poor fit] | 
33 | COc1ccc(-c2nc(CS(=O)CC(=O)NCc3ccc(F)cc3)c(C)o2)cc1OC (configuration not stated) | inconclusive: 126 µM [inhibitor, single point] and inconclusive: 112 µM [inhibitor, single point] | 
34 | CCOCCCNC(=O)/C(C#N)=C/c1ccc([N+](=O)[O-])o1 | inactive | 
35 | CC(Sc1ccc2ccccc2n1)C(=O)O (configuration not stated) | inconclusive: 35.5 µM [inhibitor, partial curve, poor fit] | 
36 | Cc1ccc(Nc2nnns2)cc1C | inconclusive: 44.7 µM [inhibitor, partial curve, poor fit] | 
37 | CCCCOc1ccc(C2=NC(c3ccncc3)=Nc3ccc(Br)cc3N2)cc1 | inconclusive: 112 µM [inhibitor, single point] | 
38 | COc1cc(NC(c2ccccc2)c2ccccc2)cc(OC)c1OC | inconclusive: 63.1 µM [inhibitor, partial curve, poor fit] | 
39 | Cc1ccc(CN2CCC[C@]3(N[C@H](c4ccc(C(F)(F)F)cc4)[C@@H]4C(=O)N(Cc5ccccc5)C(=O)[C@@H]43)C2=O)cc1 | active: 8.91 µM | 
40 | COc1ccc(CCNC(=O)c2ccc3c(c2)CCC(=O)N3)cc1OC | inactive | 
41 | Cc1ccccc1C(C)NC(=O)/C=C/c1ccco1 (configuration not stated) | inconclusive: 20 µM [inhibitor, full curve, poor fit] | 
42 | COc1ccc(C2/C(=C(\O)c3ccc4c(c3)OCCO4)C(=O)C(=O)N2Cc2ccco2)c(OC)c1 (configuration not stated) | inconclusive: 28.2 µM [inhibitor, partial curve, poor fit] | 

Row | Structure (SMILES) | Potency | activity change, negative = inhibition
43 | O=[N+]([O-])c1ccc(N2CCSCC2)cc1O | inconclusive: 89.1 µM [inhibitor, single point] | 
44 | Nc1c(C(=O)N2CCCCC2)sc(=S)n1-c1ccccc1 | inconclusive: 8.91 µM [inhibitor, full curve] | 
45 | COc1ccc(CN(C)C[C@H]2OCCCC[C@H](C)Oc3ccc(NC(=O)CCC(F)(F)F)cc3C(=O)N([C@@H](C)CO)C[C@@H]2C)cc1 | inconclusive: 1.41 µM [inhibitor, full curve, poor fit] | 
46 | Cc1nn(-c2ccc(F)cc2)c(C)c1[C@@H]1C=C[C@@H](NCc2ccc(C(C)C)cc2)C1 | inconclusive: 63.1 µM [inhibitor, partial curve, poor fit] | 
47 | Cc1cccc(NC(=O)CSc2nc3ccccc3c(=O)n2C)c1C | inconclusive: 100 µM [inhibitor, single point] | 
48 | COCC(C)NC(=O)c1cccc2c(=O)c(C)c(-c3ccccc3)oc12 (configuration not stated) | inconclusive: 126 µM [inhibitor, single point] | 
49 | O=C(Nc1ccc(F)cc1)Nc1cccc(-c2ccc(N3CCOCC3)nn2)c1 | inconclusive: 35.5 µM [inhibitor, full curve] | 
50 | NC(=O)CN1CCCC1c1ccc2c(c1)OCCO2 (configuration not stated) | inconclusive: 112 µM [inhibitor, partial curve, poor fit] | 
51 | O=C(CN1C(=O)NC2(CCCC2)C1=O)Nc1cc(Cl)cc2cccnc12 | inconclusive: 10 µM [inhibitor, partial curve, poor fit] | 
52 | CC(C)N(Cc1nc(-c2ccc(Cl)cc2)no1)Cc1nccn1C | inactive | 
53 | CC1(C(=O)Nc2ccc3c(c2)OCO3)CCN1C(=O)C1CCCCC1 (configuration not stated) | inconclusive: 79.4 µM [inhibitor, single point] | 
54 | CC(NC(=O)c1ccccc1C(=O)O)c1ccc(-n2ccnc2)cc1 (configuration not stated) | inconclusive: 25.1 µM [inhibitor, single point] | 
55 | O=C(NCc1ccc(F)cc1)C1CCCN(S(=O)(=O)c2ccc(Br)s2)C1 (configuration not stated) | inconclusive: 44.7 µM [inhibitor, partial curve, poor fit] | 
56 | Cn1ncc2c(C(=O)NCCc3ccc(Cl)cc3)cc(-c3ccc(Cl)cc3Cl)nc21 | inconclusive: 10 µM [inhibitor, full curve] | 
57 | COc1ccc(CC(=O)NC(C)c2ccco2)cc1 (configuration not stated) | inactive | 
58 | CCCn1c(C)c(CC(=O)N(C)Cc2cccnc2)c2c1CC(C)(C)CC2=O | inactive | 
59 | Oc1cc2c(cc1O)CN(C(=S)NCCc1ccc(Cl)cc1)CCC2 | inconclusive: 398 nM [inhibitor, full curve, poor fit] and active: 17.8 µM | 
60 | CC(C)(C)OC(=O)N[C@@H](Cc1ccccc1)[C@H](O)c1ccco1 | inconclusive: 79.4 µM [inhibitor, partial curve, poor fit] | 
61 | Nc1cccc(C(=O)c2ccncc2)c1 | inconclusive: 25.1 µM [inhibitor, full curve] | 
62 | c1ccc(CC2=NOC3(CCN(C4CCCCC4)CC3)C2)cc1 |  | inactive: -0.351% [at 6.33 µM]
